Measured values: paper PMC7439480, “Phosphorylation-Dependent Assembly of a 14-3-3 Mediated Signaling Complex during Red Blood Cell Invasion by Plasmodium falciparum Merozoites” (mBio, 2020)
These are yes or no findings as the source states them, for the method shown. In cells and extracts the contact can be indirect.

Sequences of proteins named here, by UniProt entry; tags and fusion partners are left off.
UniProt Q8I719: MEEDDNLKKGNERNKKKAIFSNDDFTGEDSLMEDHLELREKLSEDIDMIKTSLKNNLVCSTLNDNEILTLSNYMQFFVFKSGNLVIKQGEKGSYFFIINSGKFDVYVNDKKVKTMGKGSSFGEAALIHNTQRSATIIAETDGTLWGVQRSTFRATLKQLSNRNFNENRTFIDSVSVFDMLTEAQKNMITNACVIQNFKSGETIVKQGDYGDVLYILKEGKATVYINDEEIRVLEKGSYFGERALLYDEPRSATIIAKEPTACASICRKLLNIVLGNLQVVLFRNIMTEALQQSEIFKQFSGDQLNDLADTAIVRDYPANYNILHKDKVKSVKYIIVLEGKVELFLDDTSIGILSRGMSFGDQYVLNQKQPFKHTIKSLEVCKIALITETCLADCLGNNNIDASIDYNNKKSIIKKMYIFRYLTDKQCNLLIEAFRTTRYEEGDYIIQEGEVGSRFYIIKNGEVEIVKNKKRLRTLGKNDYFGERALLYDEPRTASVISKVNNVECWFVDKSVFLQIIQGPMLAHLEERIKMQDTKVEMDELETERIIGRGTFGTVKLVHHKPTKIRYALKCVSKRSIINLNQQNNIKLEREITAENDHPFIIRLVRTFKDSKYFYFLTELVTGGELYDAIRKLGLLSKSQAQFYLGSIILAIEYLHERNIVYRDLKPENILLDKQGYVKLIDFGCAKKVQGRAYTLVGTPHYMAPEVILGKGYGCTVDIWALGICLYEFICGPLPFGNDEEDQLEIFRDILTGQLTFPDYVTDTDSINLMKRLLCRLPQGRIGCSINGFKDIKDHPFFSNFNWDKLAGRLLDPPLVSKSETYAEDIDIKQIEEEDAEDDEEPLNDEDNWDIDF

Molecular target: T1, Pf14-3-3I (P. falciparum 3D7 (endogenous in merozoites)) (UniProt C0H4V6)
T1 sequence: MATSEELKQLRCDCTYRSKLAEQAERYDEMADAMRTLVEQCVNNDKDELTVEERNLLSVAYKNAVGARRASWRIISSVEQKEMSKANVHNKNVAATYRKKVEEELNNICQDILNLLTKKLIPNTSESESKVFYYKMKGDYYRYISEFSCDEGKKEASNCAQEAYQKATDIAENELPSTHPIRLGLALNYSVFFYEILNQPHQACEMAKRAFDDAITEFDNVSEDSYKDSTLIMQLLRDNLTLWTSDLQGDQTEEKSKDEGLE
Experiment: co-IP; IP with anti-PfPKAr, anti-PfCDPK1 or anti-Pf14-3-3I sera (Pierce co-IP kit) from merozoite lysates, Western blot; merozoites in IC (high K+), EC (low K+) or EC-BA (EC + BAPTA-AM) buffer, or treated with 100 uM peptides P1, P2, P3 or 2 uM BV02 before lysis

P. falciparum protein kinase G (PfPKG) (from UniProt Q8I719 1-853) (enzyme)
binding: no binding
